In PubChem BioAssay AID651664 (NMMLSC, 2012):
In all, about 1,800 compounds went through this assay and fewer than 10 were called active.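 The calls were made as follows: active = inhibition of granule release above a set limit; inactive = the rest.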 The list shows a part of the results.

Test: LAMP-1 surface externalization blockers in TALL-104 cells – cell-based, flow cytometry, validation set (AID 651664)
Conditions: TALL-104 LAMP-1 externalization, at 15.2 µM, hits give high values, stimulated with thapsigargin and PMA

inhibition, inactive:
CCOc1ccc2nc(NC(=O)CCC(=O)c3cccs3)sc2c1 4%, Cc1sc2ncnc(OCC(=O)Nc3ccc4c(c3)OCCO4)c2c1C -3.2%, O=C(NCc1ccccn1)C1CCN(S(=O)(=O)c2ccccc2)CC1 -2.7%, O=C(Nc1ccc(N2CCN(C(=O)c3ccco3)CC2)c(Cl)c1)c1cc2ccccc2o1 3.3%, Cc1cccnc1NC(=O)Nc1ccc(F)cc1 -5.6%, Oc1ccc(Br)cc1-c1cc(-c2ccc(Cl)cc2)n[nH]1 0.6%, CC1=NN(c2nc(-c3ccc(C)cc3)cs2)C(=O)C1N=Nc1ccc2ccccc2c1 (stereo not drawn) -1.8%, C=CCn1c(NCCc2ccccc2)nc2c1c(=O)n(C)c(=O)n2C -4.1%, COC(=O)c1sc(NC(=O)COc2ccc(OC)cc2)nc1C 13.2%, CCC(=O)Nc1cccc(C(=O)/C=C/c2ccccc2)c1 -0.3%, O=C(O)C1C2C=CC3(CN(CC(O)COc4ccccc4)C(=O)C13)O2 (stereo not drawn) -2.6%, Cc1cc(S(=O)(=O)N2CC(=O)N(CCc3ccccc3)C(=O)C2)ccc1F -1.5%, S=c1[nH]nc(-c2ccccc2Cl)n1CC1CCCO1 (stereo not drawn) -1.9%, Cc1ccccc1-n1c(C)cc(/C=N/Nc2ccc([N+](=O)[O-])cn2)c1C -1.3%, CCOC(=O)C1=C(CNCc2ccccc2Cl)NC(=O)NC1c1ccc2c(c1)OCO2 (stereo not drawn) -3.4%, NC(=O)N1OCC2COc3ccc4ccccc4c3C21 (stereo not drawn) 4.4%, Nc1c(C(=O)NCC2CCCO2)sc(=S)n1-c1ccccc1 (stereo not drawn) 0.7%, CC(C)[C@H](NC(=O)NCCc1ccccc1)C(=O)O -2.6%, CCN1CCCC1CNC(=O)Cn1cccc1C(=O)c1ccccc1 (stereo not drawn) 0.5%, COCCCNC(=O)C1CCC(=O)N1Cc1ccccc1Cl (stereo not drawn) 0.7%, CCOC(=O)C1=C(C)N=c2s/c(=C\C(=O)OC)c(=O)n2C1c1ccc(OC)cc1 (stereo not drawn) -0.8%, C/C(=N/OC(=O)c1ccc(F)cc1)c1ccc(C)cc1 0.7%, COC(=O)CN1C(=O)C(O)(CC(=O)c2ccc(C)o2)c2ccccc21 (stereo not drawn) -1.9%, COC(=O)c1ccc(/C=C/C(=O)c2ccc(OC)c(OC)c2)cc1 8.4%, CCOc1cc(/C=C(/C#N)C(=O)Nc2ccc(O)cc2)cc(Br)c1O 0.7%, Cc1ccccc1-n1ccnc1SCC(=O)O -0.9%, FC(F)(F)c1cnc2c(-c3ccc(Cl)cc3Cl)noc2c1 -2.4%, Cc1ccc(S(=O)(=O)N2CCCC(C(=O)NCCc3ccc4c(c3)OCO4)C2)cc1 (stereo not drawn) -2.7%, CCOc1ccccc1N1CCN(C2=C(NS(=O)(=O)c3cccs3)C(=O)c3ccccc3C2=O)CC1 1.5%, COC(=O)c1cc(Cl)c(NC(=O)c2cc3ccccc3o2)cc1OC 5.1%, CCn1c(O)c(N=NC2=NC(=O)CS2)c2cc(C)ccc21 -4.5%, CN(C(=O)c1ccc(C#N)cc1)c1nnc(-c2ccccn2)s1 0.9%, Cn1c(=O)n(CC(=O)N2CCOCC2)c2ccccc21 0.4%, COC(=O)c1cc(OC)c(OC)cc1NC(=O)c1ccc(Br)o1 -1.6%, Cc1cnc(NC(=O)c2ccc3c(c2)C(=O)N(Cc2ccco2)C3=O)s1 -1.3%, Cn1c(=O)n(C)c2cc(S(=O)(=O)O)ccc21 4.8%, CCC1(C)Nc2ccccc2C(=O)N1O (stereo not drawn) -0.7%, CCC1CCCCN1C(=O)c1c(-c2ccccc2)noc1C (stereo not drawn) -2%, CC(C)(C)C(=O)Nc1cccc(-c2nnc(-c3cccc(NC(=O)C(C)(C)C)c3)o2)c1 -2.4%, Fc1ccc(C2=Nn3c(Cc4ccccc4F)nnc3SC2)cc1 1.3%, CC(=O)/C(C[N+]1(C)CCCCC1)=N\O -0.4%, O=C(Nc1nc(-c2ccc(-c3ccccc3)cc2)cs1)C1CCCO1 (stereo not drawn) 13.3%, COc1ccc(C(C#N)N2CCOCC2)cc1 (stereo not drawn) -1%, CC(C)C(=O)NCCc1nc2ccccc2n1CCCOc1ccc(Cl)cc1 -1.9%, COc1ccc(NC(=O)c2cc(OC)c(OC)cc2OC)c(S(=O)(=O)N2CCOCC2)c1 2.5%, CC(C)OC(=O)/C(=C\C=C\c1ccccc1)NC(=O)c1ccccc1 -2.1%, COc1nc(OCC#N)nc(N(C)C)n1 -0.4%, CCCCCOP(=O)(OCCCCC)C1(NS(=O)(=O)c2ccccc2)C=CC(=O)c2ccccc21 (stereo not drawn) 0.5%, O=C(OCCN1CCCC1)C1(c2ccccc2)CCCC1 -0.9%, O=S(=O)(Nc1cccnc1)c1ccc2c(c1)OCCO2 -1.3%, COc1cccc(CN(Cc2ccco2)C(c2ccc(F)cc2)c2nnnn2C(C)(C)C)c1 (stereo not drawn) -0.3%, O=C(CSc1ncnc2c1cnn2Cc1ccccc1)Nc1ccc2c(c1)OCCO2 0.3%, CCCOC(=O)c1ccc(NC(=O)c2ccoc2C)cc1 0.7%, Cc1csc(N(C(=O)c2cccc(S(=O)(=O)N3CCCC3)c2)c2ccccc2)n1 -1.8%, COc1cc(C2C(C#N)=C(C)NC3=C2C(=O)CC(C)(C)C3)ccc1O (stereo not drawn) 0.1%, O=C1c2ccccc2C(=O)N1c1ccccc1S(=O)C(F)(F)F (stereo not drawn) 6.2%, COc1ccc(-c2cn[nH]c2N)cc1OC 2.5%, O=C(CSc1nnc(-c2ccc(F)cc2)o1)Nc1ccccc1N1CCOCC1 0.9%, COc1ccc(Cn2nnc3c(=O)[nH]c(C4CCN(C(=O)c5ccccc5Cl)CC4)nc32)cc1 -2.7%, COc1ccc(N=C2S/C(=C\c3ccc(C)s3)C(=O)N2CC(C)C)cc1 -0.3%, COc1cc(NS(=O)(=O)c2ccc(N/C=C(\C=O)c3nc4cc(Cl)ccc4o3)cc2)nc(OC)n1 0%, COc1cccc(CN2CCN(C(=O)c3ccco3)CC2)c1OC 1.1%, Cc1cccn2c(=O)c3cc(C(=O)NCCc4ccccc4)c(=N)n(CCCn4ccnc4)c3nc12 -2.9%, CCn1c(SCC(=O)NCC2CCCO2)nnc1-c1c[nH]c2ccccc12 (stereo not drawn) 1.5%, CC(C)CCn1c(S(=O)(=O)O)nc2ccccc21 -1.2%, COc1cc(CNCCN2CCOCC2)ccc1OCc1ccccc1Cl 1.8%, O=C(NCc1ccco1)c1c(O)c2cccc3c2n(c1=O)CCC3 2.6%, CCS(=O)(=O)N1CCCC(C(=O)NCCCOC(C)C)C1 (stereo not drawn) -2.3%, CN1CCN(C(=O)c2cc3c(C(F)(F)F)nn(C)c3s2)CC1 0.4%, CCCSc1nc2c(c(=O)n(C)c(=O)n2C)n1Cc1ccc(C)cc1 17.5%, CS(=O)(=O)N(Cc1ccc(C(=O)Nc2ccccc2Sc2ccccc2)cc1)c1ccccc1 -1.7%, COC(=O)c1ccc(CSc2nc3ccccc3c(=O)n2-c2ccccc2)o1 -0.9%, Cc1cc(C)c2nc(NC(=O)C3CCCO3)sc2c1 (stereo not drawn) 4.1%, C=CCn1c(NCc2c[nH]c3ccccc23)nc2ccccc21 3.9%, CCOc1cccc(CNc2ccc(O)cc2)c1OCc1ccccc1Cl -1.8%, COC(=O)c1ccccc1NC(=O)c1ccc(COc2ccc(C)c(C)c2)o1 -0.1%, CCCOc1ccc(Cn2c(O)cc(=O)[nH]c2=O)cc1 -1.6%, CCNC(=O)CSc1nnc(C2CC2)n1-c1ccccc1 -0.7%, Cc1cc(C(=O)Nc2ccccc2)oc1C -4.2%, CC(C)COCC1CC2(CC(C)(c3csc(N)n3)OC2=O)C(=O)O1 (stereo not drawn) -0.5%, CC(/C=N/NC(=O)Cc1cc(=O)[nH][nH]1)=C\c1ccccc1 -0.5%, Cc1nc(SC2CCOC2=O)c2c(C)c(C)sc2n1 (stereo not drawn) -4.2%, Cc1cc(C)n2nc(-c3ccc(F)cc3)nc2n1 2.6%, CNC(=O)c1sccc1SCc1c(Cl)cccc1Cl -3.3%, CCOc1ccc(OCC(=O)Nc2ccc(S(=O)(=O)Nc3cc(C)nc(C)n3)cc2)cc1 -0.7%, CC(=O)c1c(C)nn(C(=O)N2CCOCC2)c1C 3.9%, Cc1occc1C(=O)NC(C)CCc1ccccc1 (stereo not drawn) 6.4%, N#Cc1nc(-c2ccc(OCc3ccccc3)cc2)oc1NCCCN1CCOCC1 -1.9%, O=C(CCSc1nc(-c2ccco2)cc(C(F)(F)F)n1)NCCc1ccccc1 3.2%, CSc1ccc(Cl)c(C(=O)OCC(=O)N2CCOCC2)c1 -5.5%, Cc1csc(SCCn2c(N3CCCC3)nc3c2c(=O)[nH]c(=O)n3C)n1 -5.9%, O=C(O)CSC1c2ccccc2C(=O)N1Cc1ccccc1 (stereo not drawn) -2.3%, COc1ccc2c(c1OC)C(=O)N1N=C(c3ccc(O)cc3)CC21 (stereo not drawn) -0.9%, O=C(Cn1cnc2ccccc2c1=O)N1CCN(Cc2ccc3c(c2)OCO3)CC1 -0.4%, COc1ccc2c(c1OC)C(=O)N1c3ccccc3SC21 (stereo not drawn) -0.7%, Cc1cc(=O)[nH]c(SCc2nnc(-c3ccccc3)o2)n1 26.2%, Cc1ccccc1C(=O)NC(=S)Nc1ccc(Oc2ccc(Cl)cc2)cc1 0.6%, COc1ccc(C(=O)Nc2nnc(-c3cccs3)s2)cc1 4.6%
